Measured values taken from PMC11416365, “Exploring the manganese-dependent interaction between a transcription factor and its corresponding DNA: insights from gas-phase electrophoresis on a nES GEMMA instrument” (Analytical and Bioanalytical Chemistry, 2024).
For at least one entry, the source does not settle the construct or the ends of the probe. For some of these results: Negatives hold for the conditions tested. Where a protein sequence is shown, tags need not be part of it. For some of these results: The comparison behind a weaker result is the experiment's own reference, which may not be listed here.

Experiments:
[1] = target: T1, BMntR (Bacillus subtilis) (UniProt P54512); experiment: nES GEMMA (gas-phase electrophoresis); details: 0.25 uM DNA, nES GEMMA: DNA diluted in 40 mM ammonium acetate pH 8.4, recombinant protein
T1 sequence (looked up, limits assumed): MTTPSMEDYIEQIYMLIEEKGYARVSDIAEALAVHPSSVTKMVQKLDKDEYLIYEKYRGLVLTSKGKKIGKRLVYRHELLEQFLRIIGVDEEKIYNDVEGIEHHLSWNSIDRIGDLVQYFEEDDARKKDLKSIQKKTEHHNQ

[2] = target: T1, BMntR (Bacillus subtilis); experiment: EMSA; details: 90 uM protein, 2.5 uM DNA, EMSA: 10 mM Tris-HCl pH 7.6, 50 mM NaCl, 1 mM DTT, 10% glycerol, 50 ug/mL BSA, 15 min room temperature, gel in TB pH 7.6 at 4 C, recombinant protein

Question: Does “AAAATAATTTGCCTTAAGGAAACTCTTT (double strand) [B. subtilis mntH recognition sequence]” bind ([1]; 250 uM MnCl2, 1.3 uM BMntR, complex peak 7.0 nm)?
Answer: Result: binds

Question: Does “AAAATAATTTGCCTTAAGGAAACTCTTT (double strand) [B. subtilis mntH recognition sequence]” bind ([1]; no Mn2+, 1.3 uM BMntR)?
Answer: Result: no binding

Question: Does “AAAATAATTTGCCTTAAGGAAACTCTTT (double strand) [B. subtilis mntH recognition sequence]” bind ([2]; 4 mM Mn2+ (16 mM with 8 mM EDTA))?
Answer: Result: binds

Question: Does “AAAATAATTTGCCTTAAGGAAACTCTTT (double strand) [B. subtilis mntH recognition sequence]” bind ([2]; no Mn2+, slight interaction)?
Answer: Result: binds more weakly
